PubChem BioAssay AID743121 | NCATS, 2013
Purpose: 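Genes whose silencing strengthens cell killing by camptothecin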 (primary screen). Cell system: MDA-MB-231 cells, a human breast cancer line. Knock-down reagent: single siRNA against human genes, 20 nM siRNA (0.8 pmol per well). Timing: 120 h (drug added 48 h after transfection, read 72 h later). Conditions: camptothecin 20 nM (about EC30) for 72 h; vehicle 0.1% DMSO in parallel plates. Measurement: 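CellTiter-Glo ATP signal, scaled to control siRNA as percent viability; sensitisation given as log2 of untreated divided by camptothecin-treated viability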. Scale: log2 vehicle/camptothecin viability: higher = stronger sensitisation to camptothecin; viability with camptothecin and viability without drug: higher = more viable cells. Rule for the call: 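Each gene scored by redundant siRNA activity (RSA) over its individual siRNA ratios; a gene is called active at p < 0.001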.
Shown is a random part of about 26,000 reagents. In the full data, 167 (0.63%) were called active. 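Calls are per gene from RSA p-values that are not deposited; an individual active-marked siRNA can sensitise only weakly.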 Entries without a mark were called inactive. The numbers tell different reagents against one gene apart.

no.	target	reagent no.	log2 vehicle/camptothecin viability	viability with camptothecin (% of control)	viability without drug (% of control)
1	IL22RA2	1	-0.593	82.5	54.7
2	IL22RA2	2	-0.0185	81.8	80.8
3	IL22RA2	3	0.0953	74.8	79.9
4	IL22RA2	4	-0.0255	97.7	96
5	DDX1	1	-0.393	90.2	68.7
6	DDX1	2	-0.263	92.6	77.2
7	DDX1	3	-0.521	60.7	42.3
8	DDX1	4	-0.0225	45.4	44.7
9	CHRNA7	1	-0.364	70.8	55
10	CHRNA7	2	-0.118	47.7	43.9
11	CHRNA7	3	-0.0778	57.1	54.1
12	CHRNA7	4	-0.344	101	80
13	DOT1L	1	-0.0484	122	118
14	DOT1L	2	-0.0501	88.1	85.1
15	DOT1L	3	0.0351	94.3	96.6
16	DOT1L	4	-0.352	51.3	40.2
17	CYP2E1	1	0.156	71.1	79.2
18	CYP2E1	2	-0.0611	55.8	53.5
19	CYP2E1	3	-0.37	85.4	66.1
20	CYP2E1	4	-0.325	105	83.9
21	ADGRA3	1	-0.337	95.9	75.9
22	ADGRA3	2	-0.0625	90	86.2
23	ADGRA3	3	-0.227	100	85.6
24	ADGRA3	4	-0.355	71.5	55.9
25	ROS1	1	-0.214	97.2	83.8
26	ROS1	2	-0.819	61.1	34.6
27	ROS1	3	-0.073	97.9	93
28	ROS1	4	0.444	34.3	46.6
29	NR1H4	1	-0.283	104	85.9
30	NR1H4	2	-0.124	121	111
31	NR1H4	3	0.0673	83	87
32	NR1H4	4	-0.179	57.8	51.1
33	ELK1	1	-0.0338	114	112
34	ELK1	2	-0.366	79.6	61.8
35	ELK1	3	0.676	19.9	31.8
36	ELK1	4	0.146	62.5	69.2
37	NDN	1	0.512	39.3	56.1
38	NDN	2	-0.41	65.1	49
39	NDN	3	-0.487	83.2	59.4

Ordered by “log2 vehicle/camptothecin viability” (lowest first): some entries from above.
target	reagent no.	log2 vehicle/camptothecin viability	viability with camptothecin (% of control)	viability without drug (% of control)
NDN	2	-0.41	65.1	49
ELK1	2	-0.366	79.6	61.8
NR1H4	4	-0.179	57.8	51.1
ELK1	1	-0.0338	114	112
ELK1	4	0.146	62.5	69.2
NDN	1	0.512	39.3	56.1
ELK1	3	0.676	19.9	31.8

More entries follow.
no.	target	reagent no.	log2 vehicle/camptothecin viability	viability with camptothecin (% of control)	viability without drug (% of control)
40	UBR7	1	0.171	64.6	72.7
41	UBR7	2	-0.194	87	76
42	UBR7	3	-0.236	37.8	32.1
43	KIF17	1	0.242	76.4	90.4
44	KIF17	2	-0.0439	81.7	79.2
45	KIF17	3	-0.351	49	38.4
46	KIF17	4	-0.379	130	100
47	ODC1	1	-0.412	42.8	32.1
48	ODC1	2	-0.371	51.5	39.8
49	ODC1	3	-0.202	39	33.9
50	ODC1	4	-0.0905	100	94.3
51	PTPN11	1	-0.0334	106	103
52	PTPN11	2	0.613	39	59.6
53	PTPN11	3	-0.202	103	89.9
54	PTPN11	4	-0.456	82.2	59.9
55	RAI1	1	0.118	62.5	67.8
56	RAI1	2	-0.663	18.1	11.4
57	RAI1	3	0.0812	53	56.1
58	JAK3	1	-0.248	84.2	71
59	JAK3	2	-0.649	82.6	52.7
60	JAK3	3	-0.254	104	86.8
61	JAK3	4	-0.446	94.5	69.4
62	JAM2	1	0.402	59.6	78.8
63	JAM2	2	-0.0568	53.5	51.4
64	JAM2	3	-0.282	105	86.2
65	JAM2	4	-0.272	108	89.2
66	BEGAIN	1	0.402	58.1	76.8
67	BEGAIN	2	-0.327	49	39
68	BEGAIN	3	-0.0122	80.1	79.5
69	BEGAIN	4	0.149	83	92.1
70	STK38L	1	-0.302	49.7	40.3
71	STK38L	2	-0.0844	28.2	26.6
72	STK38L	3	-0.288	92.5	75.8
73	STK38L	4	0.112	37.9	40.9
74	RNF149	1	-0.435	74.2	54.9
75	RNF149	2	-0.25	81.4	68.5
76	RNF149	3	0.253	71.6	85.4
77	RNF149	4	0.822	16.8	29.6
78	ASIC4	1	-0.329	75.8	60.4
79	ASIC4	2	-0.632	91.9	59.3
80	ASIC4	3	-0.152	55.5	50
81	KCNN4	1	-0.182	91.6	80.8
82	KCNN4	2	-0.278	78.5	64.8
83	KCNN4	3	0.0779	57.6	60.8
84	GSDME	1	-0.172	141	125
85	GSDME	2	0.0185	99.5	101
86	GSDME	3	-0.413	66.4	49.9
87	GSDME	4	0.149	104	115
